According to patent publication US20220169726A1:
No constants are given. Whether binding was seen depends on the method and setting. Some results given as binding are weak or reduced against the parent protein; the word gives no strength.

Sequences of proteins named here, by UniProt entry; tags and fusion partners are left off. A change or cut given only in a name is not applied to a line headed by its entry. A line that says so, or that is headed by a name, gives the form on record, which may keep a tag or linker.
recombinant human SIRPα variant 2 protein (P78324, form named): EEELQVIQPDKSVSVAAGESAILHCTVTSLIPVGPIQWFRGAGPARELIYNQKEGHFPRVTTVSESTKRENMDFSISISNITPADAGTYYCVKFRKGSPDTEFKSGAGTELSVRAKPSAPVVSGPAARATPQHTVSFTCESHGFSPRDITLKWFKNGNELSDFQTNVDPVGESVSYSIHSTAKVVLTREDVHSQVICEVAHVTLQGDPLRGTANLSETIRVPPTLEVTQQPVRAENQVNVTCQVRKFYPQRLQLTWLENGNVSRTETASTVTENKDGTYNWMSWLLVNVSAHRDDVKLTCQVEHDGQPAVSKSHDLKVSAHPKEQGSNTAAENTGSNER

Biological target: recombinant human SIRPα variant 2 protein (human) (UniProt P78324)
Assay: ELISA, antigen coated at 0.5 ug/ml, anti-mouse Fc-HRP detection

- binding: binds
B1: 300A6A6 (antibody, V domains shown)
VH: QVQLQQSGTELVKPGSSVKISCKASGYTFTSNYIHWIRQQPGNGLEWIGWIYPGDGDTNYNQKFNGKATLTADKSSSTAYMQLSSLTSEDYAVYFCAINYGGIWFAYWGQGTLVTVSS
VL: DIQMTQSPSSMSASLGDRVTITCQASQDIGNKLIWFQQKPGKSPRLMIHYVTNLPGGVPLRFSGSRSGSDYSLTISSLESEDMADYYCLQYKQNPLTFGSGTKLEIK
